Test results from publication PMC10530362, “Light-Sensitive Open Channel Block of Ionotropic Glutamate Receptors by Quaternary Ammonium Azobenzene Derivatives” (International Journal of Molecular Sciences, 2023).

System: T1, calcium-impermeable AMPA receptors (native, hippocampal CA1 pyramidal neurons)
T1 construct: gene Gria2; native GluA2(R)-containing heteromers in isolated rat CA1 pyramidal neurons
Experiment: whole-cell patch clamp, kainate-evoked current
Type: cell-based, Rattus norvegicus
Conditions: dark, -70 mV, 100 µM kainate, pH 7.4, 22-24 °C

SMILES | Idrug/Icontrol at 30 μM
C=CC(=O)Nc1ccc(/N=N/c2ccc(NC(=O)C[N+](CC)(CC)CC)cc2)cc1 [AAQ] | 0.77 ± 0.05
CC[N+](CC)(CC)CC(=O)Nc1ccc(N=Nc2ccc(NC(=O)C[N+](CC)(CC)CC)cc2)cc1 [QAQ] | 0.89 ± 0.05
